Assay results published in patent US20050158834.

Assays:
Assay in all cases: enzyme reaction in vitro
[1] = test system: T1, Nt.SapI (Q240R) (Saccharopolyspora sp.); details: exclusive top-strand nicking; protein in a lysate after overexpression; only the site is given
T1 sequence: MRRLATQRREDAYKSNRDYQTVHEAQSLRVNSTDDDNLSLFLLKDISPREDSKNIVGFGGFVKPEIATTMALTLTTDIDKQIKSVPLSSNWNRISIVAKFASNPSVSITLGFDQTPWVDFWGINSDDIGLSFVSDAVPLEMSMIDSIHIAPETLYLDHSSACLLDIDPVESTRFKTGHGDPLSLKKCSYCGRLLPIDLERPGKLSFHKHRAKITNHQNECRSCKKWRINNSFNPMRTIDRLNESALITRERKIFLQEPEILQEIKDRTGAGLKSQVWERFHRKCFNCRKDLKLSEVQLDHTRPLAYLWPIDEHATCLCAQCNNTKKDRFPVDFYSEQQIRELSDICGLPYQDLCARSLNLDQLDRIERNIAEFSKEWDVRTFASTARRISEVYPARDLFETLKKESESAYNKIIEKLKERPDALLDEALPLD

[2] = test system: T2, Nt.SapI (E250K) (Saccharopolyspora sp.); details: top-strand nicking between 1st and 2nd nt downstream of site; NEB buffer 4, 37 C; most active top-strand variant; value is production level; protein in a lysate after overexpression; only the site is given
T2 sequence: T1 sequence with N230I, R240Q, E250K

[3] = test system: T3, SapI (Saccharopolyspora sp.); details: linearizes pUC19 (double-strand cleavage); purified recombinant protein; protein details: New England Biolabs; only the site is given
T3 sequence: T1 sequence with R240Q

[4] = test system: T4, Nt.SapI (K273R) (Saccharopolyspora sp.); details: exclusively top-strand nicked product; NEB buffer 4, 37 C; protein in a lysate after overexpression; only the site is given
T4 sequence: T1 sequence with R240Q, K273R

[5] = test system: T5, SapI variants 11/15 (K80E/E250K/K273R common substitutions) (Saccharopolyspora sp.); details: most active nicking clones of the screen; other substitutions not listed; protein in a lysate after overexpression; only the site is given
T5 sequence: T1 sequence with K80E, R240Q, E250K, K273R

[6] = test system: T6, Nb.SapI (variant 33 + D34Y/I82V/P168L/R420I) (Saccharopolyspora sp.); details: bottom-strand nicking between 4th and 5th nt downstream of site; NEB buffer 4, 37 C, 60 min; value is titer of purified lot; purified recombinant protein; only the site is given
T6 sequence: T1 sequence with D34Y, I82V, P168L, N230I, R240Q, R420I

[7] = test system: T7, Nt.SapI (G271R) (Saccharopolyspora sp.); details: exclusive top-strand nicking; protein in a lysate after overexpression; only the site is given
T7 sequence: T1 sequence with R240Q, G271R

Sequence: TGCGTATTGGGCGCTCTTCCGCTTCCTCG (double strand) [pUC19 SapI site]
- activity on this sequence [1]: active
- activity on this sequence (units/g wet cells) [2]: 10000
- activity on this sequence [3]: active
- activity on this sequence [4]: active
- activity on this sequence [5]: active
- activity on this sequence [6]: 2 units/µL
- activity on this sequence [7]: active

Substitutions are numbered along the chain they refer to. The exact form of at least one protein or probe is not confirmed. Protein sequences can lack the tags named with them.
